For at least one compound, name, drawing or mass did not settle the structure.
Test: Drug release experiments (phosphate buffer pH 7, 37° C.)
Type: physicochemical
Settings: from amorphous matrix N-LG(18)-10 (FIG. 4)
Experimental: Furthermore drug release tests were carried out with biodegradable matrix polymers. The above mentioned polyester methacrylate networks were loaded with 5% gentamicin and enoxazin, respectively. Samples having a size of 1×2 cm^2 were cut open and placed into a medium for release (4 ml phosphate buffer, pH 7). The pieces of the films were placed in tubes for a centrifuge, in a manner allowing the buffer solution to contact the films from all sides. The centrifuge tubes were placed into a shaking water bath at 37° C. and at predetermined intervals the medium for release was exchanged completely in order to determine the amount of the drug released. […] Samples are placed into polypropylene centrifuge vessels (which may be closed) of a volume of 15 ml and placed into contact with 4 ml of the releasing medium. […] The release experiment is carried out in a temperature controlled shaking water bath at 37° C. with 60 revolutions per minute. The temperature is controlled with an accuracy of ±0.1 K. […] The experiment is concluded when all of the drug has been released. The establishment of the release profile occurs by means of determination of the released drug by UV-Vis-spectroscopy. […] The content of drug remaining in the matrix is added to the content as determined with the release experiment.

For CCn1cc(C(=O)O)c(=O)c2cc(F)c(N3CCNCC3)nc21 [enoxancine], the drug release profile was “step profile”.

From patent US8158143B2, “Systems for releasing active ingredients, based on biodegradable or biocompatible polymers with a shape memory effect” (Helmholtz-Zentrum Geesthacht Zentrum fuer Material- und …, priority 2000, dated 2012)
